PubChem BioAssay AID1159578 – Peter MacCallum Cancer Centre – 2015
The whole screen tested about 18,000 reagents; below is an unselected part. In the full data, about 1,030 (5.7%) were called active. 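Inactive calls also include pools with fewer than 3300 nuclei, whose migration was not assessed.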 Raw values vary from plate to plate and are shown uncorrected. Unmarked entries are inactive. Further read-outs or replicates are left out here.

Assay: 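Knock-downs that alter how fast lymphatic endothelial cells migrate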 (primary screen)
Cells: human lymphatic endothelial cells
Knock-down reagent: siRNA pool against human genes, 40 nM
Time to read-out: 48 h after transfection
Measured: 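Cells stained with dye and imaged after a scratch; covered wound area and nuclei counted, duplicates averaged, migration set against mock wells and turned into a robust z-score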
Direction: migration robust z-score: higher = faster migration into the scratch; nuclei per well: higher = more cells in the well
Call rule: 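Pools averaging fewer than 3300 nuclei are never called; remaining pools count as changed when migration robust z lies outside -2 to 2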
Meaning of the calls: active = migration changed; inactive = no migration change, or too few cells

gene knocked down | migration robust z-score | nuclei per well, duplicate mean
HINT1 | -0.8 | 5754
RER1 | 0.32 | 6226
CHD8 | 0.42 | 4418
AGBL4 | 0.1 | 6190
SECISBP2 | 1.03 | 5642
TRIM3 | -0.49 | 4820
PTGER2 | 0.96 | 5762
ITCH | 1.3 | 5358
ZNF562 | 0.9 | 5696
PLSCR5 | 0.02 | 7165
CACNA2D4 | -0.56 | 5352
FCGR2C | 0.64 | 6119
SCAF11 | 0.55 | 5396
RBMY1A1 | 3.07 (active) | 6535
TAF8 | -0.42 | 6606
ZNF699 | -0.98 | 5895
HAPLN3 | -0.16 | 5894
OR13J1 | -0.64 | 7679
HPS4 | 0.15 | 5640
SERPINE1 | -0.24 | 5178
GPR171 | 0.34 | 6653
F13A1 | 1.48 | 6982
GLDN | 0.46 | 5267

Laid out differently: entries from further up
ITCH
- migration robust z-score: 1.3
- nuclei per well, duplicate mean: 5358

ZNF562
- migration robust z-score: 0.9
- nuclei per well, duplicate mean: 5696
